The data set can be described thus: general procedure: Fmoc solid-phase peptide synthesis; CTC resin; DIC/OxymaPure. The settings on record: whole synthesis; for crude yield / crude HPLC purity: scale of the general procedure 0.25 g of Wang resin (0.75 mmol/g).

This is an account of results in patent US11396533 (dated 2022).

Regarding “Boc-His(Trt)^1-Aib-Glu(OtBu)-Gly-Thr(tBu)-Phe-Thr(tBu)-Ser(ψ^Me,Mepro)^8-OH”, the crude mass is 960 mg and the crude yield worked out at 77%.
As to “Boc-His(Trt)^1-Ala-Glu(OtBu)-Gly-Thr(tBu)-Phe-Thr(tBu)-Ser(ψ^Me,Mepro)^8-OH”, the crude mass was 270 mg, the “crude HPLC purity” value is on record as 87% and the crude yield was 80%.
On the same counts, the results for “Fmoc-Asp(OtBu)^9-Val-Ser(tBu)-Ser(tBu)-Tyr(tBu)-Leu-Glu(OtBu)-Gly^16-OH” are 330 mg, 91% and 90%.
